Data from publication PMC5732184, “Arabidopsis Basic Helix-Loop-Helix 34 (bHLH34) Is Involved in Glucose Signaling through Binding to a GAGA Cis-Element”.
For at least one entry, the source does not settle the construct or the ends of the probe. No signal at the amounts used counts as a negative. For some assays here: Tags and fusion partners may be left off the protein sequences shown.

Assays:
[1] = tested on: MBP; assay: EMSA; details: 10 mM Tris-HCl pH 7.5, 50 mM KCl, 1 mM EDTA, 1 mM DTT, 2.5% glycerol, 1 ug poly(dI-dC), 100 ng protein, 0.3 pmol DNA in 20 uL; 25 C 20 min; 5% native PAGE in TBE at 4 C; recombinant protein; label: 32P
[2] = molecular target: T1, His-bHLH34 (Arabidopsis thaliana) (UniProt Q9LTC7); assay: EMSA; details: 10 mM Tris-HCl pH 7.5, 50 mM KCl, 1 mM EDTA, 1 mM DTT, 2.5% glycerol, 1 ug poly(dI-dC), 100 ng protein, 0.3 pmol DNA in 20 uL; 25 C 20 min; 5% native PAGE in TBE at 4 C; recombinant protein; residues 1-320; protein details: His tag (pET300/NT-DEST); label: 32P
T1 sequence (looked up): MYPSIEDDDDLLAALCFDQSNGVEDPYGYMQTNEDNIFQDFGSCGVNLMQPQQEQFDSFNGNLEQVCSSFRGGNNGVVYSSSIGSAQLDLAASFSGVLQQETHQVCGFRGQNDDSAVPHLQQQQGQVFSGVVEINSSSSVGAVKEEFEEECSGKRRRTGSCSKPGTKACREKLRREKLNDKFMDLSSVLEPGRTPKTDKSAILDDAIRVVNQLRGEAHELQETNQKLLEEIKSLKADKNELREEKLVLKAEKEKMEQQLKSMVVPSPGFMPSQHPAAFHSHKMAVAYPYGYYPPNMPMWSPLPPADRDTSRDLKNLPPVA

AGAAGAGACGGC (double strand) [DBE1]: no binding [1].

AGAATTTTCGGA / GCCGAAAATTCT [DBE1 m5]: no binding [2].
